PubChem BioAssay AID504786 | Drosophila RNAi Screening Center, 2011
In all, the deposit lists about 21,000 reagents; shown is an unselected part of those with a known target gene and a result. 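Primary screen; positive scores mean lost reporter signal, so the sign may be inverted from the usual convention.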 Reagent sequences are not shown.

Screen: 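Fly genes required for HIF-dependent transcription when hypoxia is mimicked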 (primary screen)
Cell system: Drosophila S2 cells with a stable HIF luciferase reporter
Reagent: long dsRNA against Drosophila genes, about 0.2 µg dsRNA per well of a 384-well plate
Time to read-out: three days of knock-down, then 20 h of DFO before reading
Treatment: desferrioxamine (DFO) at 100 µM, an iron chelator that mimics hypoxia, for 20 h
Read-out: 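HIF reporter luminescence in cells given 100 µM DFO for 20 h, using the mouse ldh-a hypoxia-response element, scored as per-plate z-scores; higher means greater loss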
Scale: z-score: higher = stronger loss of HIF reporter signal

z-score, replicate 1 | z-score, replicate 2 | gene knocked down | amplicon
-0.2 | -0.3 | CG8950 | DRSC07300
-0.3 | -0.1 | CG4820 | DRSC15654
-0.2 | 0 | CG32639 | DRSC18972
0.8 | 0.9 | ash1 (absent, small, or homeotic discs 1) | DRSC11325
-0.3 | -0.4 | CG31076 | DRSC16017
1.3 | 0.4 | Rab11 | DRSC16809
-0.1 | 0 | CG33309 | DRSC01421
-0.4 | -0.5 | achi (achintya) | DRSC07276
-0.3 | -0.4 | wit (wishful thinking) | DRSC08741
-0.2 | -0.1 | CG13965 | DRSC02307
-0.3 | -0.5 | CG11714 | DRSC09857
-0.2 | -0.6 | CG12316 | DRSC09879
-0.2 | -0.4 | Zn72D (Zinc-finger protein at 72D) | DRSC11318
0.2 | 0.8 | CG42232 | DRSC15018
-0.2 | 0.4 | CG42232 | DRSC15019
-0.3 | -0.2 | Orct (Organic cation transporter) | DRSC16777
-0.3 | 0.1 | lectin-24A | DRSC00604
0.1 | 0.3 | Gr21a (Gustatory receptor 21a) | DRSC00366
0.1 | 0.4 | CG9667 | DRSC16535
-0.2 | -0.2 | CG30286 | DRSC04070
-0.2 | -0.3 | Ufc1 (Ubiquitin-fold modifier conjugating enzyme 1) | DRSC07156
-0.3 | -0.7 | CG8243 | DRSC07122
-0.1 | 0 | Dlic (Dynein light intermediate chain) | DRSC19824
-0.1 | 0.2 | LSm7 (Like Sm 7) | DRSC02251
-0.3 | -0.6 | lsn (larsen) | DRSC16081
-0.3 | -0.1 | CG7519 | DRSC11834
-0.4 | -0.1 | CG11378 | DRSC18627
-0.1 | -0.2 | Cln3 | DRSC10520
0 | 0.8 | CG2972 | DRSC18250
-0.2 | -0.1 | Wsck | DRSC13682
-0.2 | -0.2 | IFT46 (Intraflagellar transport 46) | DRSC02462
-0.3 | -0.3 | gnu (giant nuclei) | DRSC10497
-0.1 | -0.1 | Cpr78Cb (Cuticular protein 78Cb) | DRSC11847
-0.8 | 0 | CG14309 | DRSC14788

Looked up above.
CG7519 [DRSC11834], z-score, replicate 2 → -0.1
Under “z-score, replicate 2”, CG32639 [DRSC18972] reads 0
Orct (Organic cation transporter) [DRSC16777], z-score, replicate 1: -0.3
Value of Wsck [DRSC13682] in “z-score, replicate 2”: -0.1
For “z-score, replicate 1”, Dlic (Dynein light intermediate chain) [DRSC19824] has -0.1
For “z-score, replicate 2”, ash1 (absent, small, or homeotic discs 1) [DRSC11325] has 0.9
